The list shows a part of the results.
Each target was assayed with COc1ccc(Cn2ccc3ccc(C(=O)NO)cc32)cc1 (assay: dose-dependent thermal stabilisation call (2D-TPP, DLPTP, 10% FDR) (binary (1 = stabilised)); higher = stabilised by the compound). Conditions: system: HL-60 intact cells; concentration range 0.04-10 µM.

Amino acid sequences for entries named in this document (tags omitted). A change or cut given only in a name is not applied to a line headed by its entry.
UniProt Q96EZ8, whole entry: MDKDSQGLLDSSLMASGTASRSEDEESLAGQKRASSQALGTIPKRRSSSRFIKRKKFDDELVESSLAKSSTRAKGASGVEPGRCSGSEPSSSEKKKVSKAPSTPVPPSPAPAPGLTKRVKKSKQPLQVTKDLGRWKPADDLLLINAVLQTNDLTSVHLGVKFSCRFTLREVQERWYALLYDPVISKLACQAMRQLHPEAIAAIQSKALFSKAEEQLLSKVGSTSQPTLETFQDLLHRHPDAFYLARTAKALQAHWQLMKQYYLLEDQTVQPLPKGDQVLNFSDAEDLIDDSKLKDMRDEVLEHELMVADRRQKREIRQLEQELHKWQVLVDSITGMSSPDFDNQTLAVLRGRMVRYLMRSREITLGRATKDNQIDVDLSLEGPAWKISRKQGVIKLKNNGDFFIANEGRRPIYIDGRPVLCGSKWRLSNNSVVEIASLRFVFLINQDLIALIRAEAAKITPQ
UniProt Q14149: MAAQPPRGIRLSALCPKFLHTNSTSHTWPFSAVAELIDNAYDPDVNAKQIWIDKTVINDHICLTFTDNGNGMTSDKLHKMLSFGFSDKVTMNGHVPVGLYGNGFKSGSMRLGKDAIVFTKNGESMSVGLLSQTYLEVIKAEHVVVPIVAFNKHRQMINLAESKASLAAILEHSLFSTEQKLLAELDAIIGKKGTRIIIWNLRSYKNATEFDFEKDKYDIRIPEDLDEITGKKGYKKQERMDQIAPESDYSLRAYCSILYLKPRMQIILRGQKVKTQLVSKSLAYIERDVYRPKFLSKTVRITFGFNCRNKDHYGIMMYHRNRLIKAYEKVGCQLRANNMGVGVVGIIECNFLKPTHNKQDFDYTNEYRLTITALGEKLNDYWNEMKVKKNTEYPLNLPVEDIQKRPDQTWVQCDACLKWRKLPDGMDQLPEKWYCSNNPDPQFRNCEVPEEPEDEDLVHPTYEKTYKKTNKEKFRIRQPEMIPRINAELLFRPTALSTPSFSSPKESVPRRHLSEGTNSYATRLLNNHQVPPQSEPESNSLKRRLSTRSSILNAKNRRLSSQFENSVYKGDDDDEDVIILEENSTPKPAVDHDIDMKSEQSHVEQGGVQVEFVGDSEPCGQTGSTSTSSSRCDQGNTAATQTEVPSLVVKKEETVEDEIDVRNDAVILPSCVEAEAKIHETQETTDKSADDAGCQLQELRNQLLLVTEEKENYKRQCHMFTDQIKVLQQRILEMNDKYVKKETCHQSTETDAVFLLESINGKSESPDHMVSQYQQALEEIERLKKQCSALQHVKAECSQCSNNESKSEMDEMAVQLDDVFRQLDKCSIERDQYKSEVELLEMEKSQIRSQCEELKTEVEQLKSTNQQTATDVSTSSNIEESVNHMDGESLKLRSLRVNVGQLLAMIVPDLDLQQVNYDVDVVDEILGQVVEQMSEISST
UniProt Q9UL63, whole entry: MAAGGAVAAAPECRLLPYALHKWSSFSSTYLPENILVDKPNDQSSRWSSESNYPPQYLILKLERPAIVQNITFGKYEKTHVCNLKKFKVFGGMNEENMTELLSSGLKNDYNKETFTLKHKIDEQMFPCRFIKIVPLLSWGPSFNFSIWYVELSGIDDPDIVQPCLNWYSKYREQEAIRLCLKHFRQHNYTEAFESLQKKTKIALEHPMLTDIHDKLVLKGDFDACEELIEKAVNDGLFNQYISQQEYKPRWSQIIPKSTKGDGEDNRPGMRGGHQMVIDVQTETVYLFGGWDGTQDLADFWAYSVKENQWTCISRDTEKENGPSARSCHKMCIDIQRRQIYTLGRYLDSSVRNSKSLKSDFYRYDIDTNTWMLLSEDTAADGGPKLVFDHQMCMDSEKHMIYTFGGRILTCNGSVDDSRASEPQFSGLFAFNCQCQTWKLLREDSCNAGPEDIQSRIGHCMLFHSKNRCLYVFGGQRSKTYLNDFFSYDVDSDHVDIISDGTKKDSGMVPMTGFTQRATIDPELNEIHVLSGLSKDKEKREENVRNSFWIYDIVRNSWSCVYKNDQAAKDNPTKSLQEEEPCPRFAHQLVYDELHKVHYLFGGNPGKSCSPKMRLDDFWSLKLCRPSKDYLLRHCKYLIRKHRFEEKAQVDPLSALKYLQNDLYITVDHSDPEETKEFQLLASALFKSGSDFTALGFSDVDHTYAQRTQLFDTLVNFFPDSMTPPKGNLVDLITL
UniProt Q6P2C8: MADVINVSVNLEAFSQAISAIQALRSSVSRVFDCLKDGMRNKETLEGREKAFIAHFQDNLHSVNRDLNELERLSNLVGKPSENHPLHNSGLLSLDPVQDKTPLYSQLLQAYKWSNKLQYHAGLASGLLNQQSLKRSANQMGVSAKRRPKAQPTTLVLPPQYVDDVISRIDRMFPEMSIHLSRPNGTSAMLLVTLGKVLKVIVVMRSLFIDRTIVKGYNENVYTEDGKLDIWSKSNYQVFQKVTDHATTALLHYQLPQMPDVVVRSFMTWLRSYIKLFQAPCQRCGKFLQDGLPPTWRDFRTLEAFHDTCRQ
UniProt Q96G25: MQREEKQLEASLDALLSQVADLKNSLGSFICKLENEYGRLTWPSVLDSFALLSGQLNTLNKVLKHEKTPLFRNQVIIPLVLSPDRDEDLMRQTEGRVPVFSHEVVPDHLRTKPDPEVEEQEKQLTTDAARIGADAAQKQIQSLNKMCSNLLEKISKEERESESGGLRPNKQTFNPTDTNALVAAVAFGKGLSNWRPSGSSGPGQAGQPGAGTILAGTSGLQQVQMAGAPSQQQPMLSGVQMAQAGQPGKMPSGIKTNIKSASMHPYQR
UniProt Q9GZU1, whole entry: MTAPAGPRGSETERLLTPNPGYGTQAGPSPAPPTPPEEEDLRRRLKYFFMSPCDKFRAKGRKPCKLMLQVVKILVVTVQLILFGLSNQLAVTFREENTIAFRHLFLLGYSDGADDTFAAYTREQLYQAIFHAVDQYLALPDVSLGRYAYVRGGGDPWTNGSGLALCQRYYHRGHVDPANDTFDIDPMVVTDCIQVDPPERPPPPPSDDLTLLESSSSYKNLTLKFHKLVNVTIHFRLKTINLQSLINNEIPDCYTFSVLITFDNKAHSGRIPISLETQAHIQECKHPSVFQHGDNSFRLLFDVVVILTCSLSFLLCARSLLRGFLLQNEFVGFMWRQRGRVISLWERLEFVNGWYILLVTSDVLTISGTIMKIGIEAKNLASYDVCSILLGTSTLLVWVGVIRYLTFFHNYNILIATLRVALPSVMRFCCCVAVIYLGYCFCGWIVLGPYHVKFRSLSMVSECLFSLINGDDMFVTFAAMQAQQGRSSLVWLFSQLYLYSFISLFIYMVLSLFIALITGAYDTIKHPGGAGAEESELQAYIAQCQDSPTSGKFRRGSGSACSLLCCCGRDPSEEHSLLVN
UniProt Q9BYG3: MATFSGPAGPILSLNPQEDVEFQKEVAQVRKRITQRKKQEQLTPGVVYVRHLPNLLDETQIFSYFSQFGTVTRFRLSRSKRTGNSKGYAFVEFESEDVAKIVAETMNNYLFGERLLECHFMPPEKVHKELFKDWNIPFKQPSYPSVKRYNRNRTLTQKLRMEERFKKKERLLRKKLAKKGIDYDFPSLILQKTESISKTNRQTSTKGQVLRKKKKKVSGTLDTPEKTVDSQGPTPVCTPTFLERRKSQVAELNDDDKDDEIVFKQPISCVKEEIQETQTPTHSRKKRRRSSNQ
UniProt P29372, whole entry: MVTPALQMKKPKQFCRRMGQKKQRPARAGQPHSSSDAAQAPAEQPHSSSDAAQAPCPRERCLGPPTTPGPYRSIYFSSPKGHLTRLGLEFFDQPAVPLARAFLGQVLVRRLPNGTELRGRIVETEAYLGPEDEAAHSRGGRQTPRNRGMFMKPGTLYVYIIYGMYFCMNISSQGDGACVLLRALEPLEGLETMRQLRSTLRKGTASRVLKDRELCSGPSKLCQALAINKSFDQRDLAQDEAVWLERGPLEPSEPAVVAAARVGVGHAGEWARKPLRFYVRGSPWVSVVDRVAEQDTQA
UniProt Q8TDZ2: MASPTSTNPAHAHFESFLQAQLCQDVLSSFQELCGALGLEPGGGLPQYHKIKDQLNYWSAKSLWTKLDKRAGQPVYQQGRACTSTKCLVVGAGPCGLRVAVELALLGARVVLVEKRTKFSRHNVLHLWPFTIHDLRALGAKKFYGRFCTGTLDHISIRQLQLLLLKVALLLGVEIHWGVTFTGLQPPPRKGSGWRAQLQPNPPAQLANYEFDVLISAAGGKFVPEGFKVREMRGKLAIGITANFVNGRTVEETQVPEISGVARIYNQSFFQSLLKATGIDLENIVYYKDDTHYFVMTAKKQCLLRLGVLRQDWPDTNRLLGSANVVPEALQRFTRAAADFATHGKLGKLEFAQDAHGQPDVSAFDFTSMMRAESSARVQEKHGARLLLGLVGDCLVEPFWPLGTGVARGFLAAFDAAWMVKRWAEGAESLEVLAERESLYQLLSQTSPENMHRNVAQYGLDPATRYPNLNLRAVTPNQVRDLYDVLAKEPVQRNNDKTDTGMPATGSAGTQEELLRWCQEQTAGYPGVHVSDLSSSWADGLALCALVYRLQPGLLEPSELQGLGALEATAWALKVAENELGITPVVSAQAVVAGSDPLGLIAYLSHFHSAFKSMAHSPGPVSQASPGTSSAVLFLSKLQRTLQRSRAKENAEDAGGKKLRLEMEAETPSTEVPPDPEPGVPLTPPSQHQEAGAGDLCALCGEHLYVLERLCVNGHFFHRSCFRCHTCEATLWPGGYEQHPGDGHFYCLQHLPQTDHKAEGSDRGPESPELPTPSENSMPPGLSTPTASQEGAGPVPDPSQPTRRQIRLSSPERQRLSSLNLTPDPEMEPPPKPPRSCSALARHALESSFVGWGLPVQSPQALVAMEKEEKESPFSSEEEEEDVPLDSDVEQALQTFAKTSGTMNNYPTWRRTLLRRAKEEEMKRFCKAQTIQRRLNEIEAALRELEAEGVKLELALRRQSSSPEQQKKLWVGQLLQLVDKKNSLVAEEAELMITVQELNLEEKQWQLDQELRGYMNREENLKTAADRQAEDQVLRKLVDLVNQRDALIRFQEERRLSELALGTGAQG
UniProt Q96RQ3: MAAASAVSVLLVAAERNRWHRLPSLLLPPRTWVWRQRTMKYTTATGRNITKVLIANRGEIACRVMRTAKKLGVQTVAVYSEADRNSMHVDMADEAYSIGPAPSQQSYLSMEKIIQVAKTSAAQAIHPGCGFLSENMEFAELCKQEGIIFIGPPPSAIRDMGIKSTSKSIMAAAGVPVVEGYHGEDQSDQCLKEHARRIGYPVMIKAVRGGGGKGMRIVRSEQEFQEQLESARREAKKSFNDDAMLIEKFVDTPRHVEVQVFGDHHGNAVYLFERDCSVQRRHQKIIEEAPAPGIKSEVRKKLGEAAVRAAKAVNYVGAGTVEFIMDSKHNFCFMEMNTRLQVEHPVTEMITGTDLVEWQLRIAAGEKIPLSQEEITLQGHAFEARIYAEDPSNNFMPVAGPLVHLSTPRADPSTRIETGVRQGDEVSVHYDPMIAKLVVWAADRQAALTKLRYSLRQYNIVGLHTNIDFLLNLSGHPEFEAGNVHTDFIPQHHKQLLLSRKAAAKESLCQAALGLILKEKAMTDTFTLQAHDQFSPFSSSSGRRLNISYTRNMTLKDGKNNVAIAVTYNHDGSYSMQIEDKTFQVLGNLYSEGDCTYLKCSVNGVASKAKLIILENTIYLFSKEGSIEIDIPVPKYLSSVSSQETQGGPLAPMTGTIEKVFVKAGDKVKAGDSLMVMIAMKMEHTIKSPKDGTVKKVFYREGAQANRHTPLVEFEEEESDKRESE
UniProt Q3KQU3: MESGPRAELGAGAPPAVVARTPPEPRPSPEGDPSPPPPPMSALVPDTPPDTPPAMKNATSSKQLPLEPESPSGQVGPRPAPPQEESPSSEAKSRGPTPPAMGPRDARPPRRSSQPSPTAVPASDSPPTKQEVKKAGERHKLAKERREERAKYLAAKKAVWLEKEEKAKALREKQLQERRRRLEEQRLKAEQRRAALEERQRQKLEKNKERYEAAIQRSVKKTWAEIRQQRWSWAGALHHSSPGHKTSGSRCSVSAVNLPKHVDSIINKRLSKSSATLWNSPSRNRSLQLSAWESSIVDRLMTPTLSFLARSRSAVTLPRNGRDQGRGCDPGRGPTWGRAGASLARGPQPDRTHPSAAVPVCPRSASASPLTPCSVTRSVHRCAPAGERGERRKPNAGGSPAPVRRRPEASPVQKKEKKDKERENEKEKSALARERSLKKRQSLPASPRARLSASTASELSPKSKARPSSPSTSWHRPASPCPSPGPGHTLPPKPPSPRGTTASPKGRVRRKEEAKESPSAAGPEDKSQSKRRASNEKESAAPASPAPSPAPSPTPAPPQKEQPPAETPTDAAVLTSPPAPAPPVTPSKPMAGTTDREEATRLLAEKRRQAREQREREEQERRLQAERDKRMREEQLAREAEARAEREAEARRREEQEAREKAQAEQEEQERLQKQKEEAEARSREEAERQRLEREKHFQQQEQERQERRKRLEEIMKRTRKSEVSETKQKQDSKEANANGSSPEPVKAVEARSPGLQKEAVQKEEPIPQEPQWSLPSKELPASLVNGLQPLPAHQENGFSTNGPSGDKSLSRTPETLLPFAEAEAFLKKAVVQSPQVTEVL

Row | Target | dose-dependent thermal stabilisation call
1 | MRPL19 (UniProt P49406) | inactive: 0
2 | MCRS1 (UniProt Q96EZ8) | inactive: 0
3 | MORC3 (UniProt Q14149) | inactive: 0
4 | MKLN1 (UniProt Q9UL63) | inactive: 0
5 | MARS2 (UniProt Q96GW9) | inactive: 0
6 | MED27 (UniProt Q6P2C8) | inactive: 0
7 | MAP2K2 (UniProt P36507) | inactive: 0
8 | MLL (UniProt Q03164) | inactive: 0
9 | MAP1LC3B2 (UniProt A6NCE7) | inactive: 0
10 | MED8 (UniProt Q96G25) | inactive: 0
11 | MCOLN1 (UniProt Q9GZU1) | inactive: 0
12 | MFNG (UniProt O00587) | inactive: 0
13 | MFN2 (UniProt O95140) | inactive: 0
14 | METAP1 (UniProt P53582) | inactive: 0
15 | MKI67IP (UniProt Q9BYG3) | inactive: 0
16 | MCFD2 (UniProt Q8NI22) | inactive: 0
17 | MPG (UniProt P29372) | inactive: 0
18 | MICAL2 (UniProt O94851) | inactive: 0
19 | MPP1 (UniProt Q00013) | inactive: 0

Another view of some results above.
Row	Target	dose-dependent thermal stabilisation call
7	MAP2K2 (UniProt P36507)	inactive: 0
8	MLL (UniProt Q03164)	inactive: 0

(list continues)

Row | Target | dose-dependent thermal stabilisation call
20 | MNDA (UniProt P41218) | inactive: 0
21 | METTL5 (UniProt Q9NRN9) | inactive: 0
22 | MICAL1 (UniProt Q8TDZ2) | inactive: 0
23 | MCAT (UniProt Q8IVS2) | inactive: 0
24 | MAP4 (UniProt P27816) | inactive: 0
25 | MCCC1 (UniProt Q96RQ3) | inactive: 0
26 | MFSD9 (UniProt Q8NBP5) | inactive: 0
27 | MCL1 (UniProt Q07820) | inactive: 0
28 | MRPL1 (UniProt Q9BYD6) | inactive: 0
29 | MAP7D1 (UniProt Q3KQU3) | inactive: 0
30 | MOSPD1 (UniProt Q9UJG1) | inactive: 0
31 | MOCS3 (UniProt O95396) | inactive: 0
32 | MON1B (UniProt Q7L1V2) | inactive: 0
33 | MCM7 (UniProt P33993) | inactive: 0
34 | MCM6 (UniProt Q14566) | inactive: 0
35 | MRPS26 (UniProt Q9BYN8) | inactive: 0
36 | MLC1 (UniProt Q15049) | inactive: 0
37 | MRPL38 (UniProt Q96DV4) | inactive: 0
